# According to PubChem BioAssay (Tox21):
# This list was built around the results that the source calls inconclusive (neither active nor inactive); the mix of calls is not that of the screen. Where the call is inconclusive, the potency comes from a doubtful curve fit. The source made the active and inactive calls. Calls come from the whole dose curve.
# Molecular target: Beta-2 adrenergic receptor (Homo sapiens) (UniProt P07550)
# Experiment: Adrenergic beta2 receptor (ADRB2) small molecule agonists, cell-based qHTS assay (AID 1963593);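 for activation: CHO cells stably overexpressing human ADRB2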
# Conditions: CHO-ADRB2 cells, cAMP HTRF, 30 min; activation: at 92.4 µM (top of the series) unless noted
# Outline: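 CHO cells stably over-expressing ADRB2 were plated overnight at 37C, then dosed with compounds plus a stimulation mix containing 100uM IBMX and 25uM Ro-20-1724 for 0.5hr at room temperature. cAMP was measured by HTRF competition, 1hr.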
# % is set by controls: 0 for no effect and ±100 for the full control effect; potency is the fitted concentration of half-maximal effect.
SMILES,activation,Potency
CCC(C)(CCC(C)C)C(=O)O (stereo not given),inconclusive: 37.9%,–
O=C(O)CC(=O)O,inconclusive: 7.89%,–
Nc1cc(=O)[nH]c(N)n1,inconclusive: 0.317% [at 42.5 µM],–
CCO[Si](C)(C)OCC,inactive: 31.4%,–
Fc1ccccc1-c1ccccc1,inconclusive: -0.45%,–
O=c1[nH]c2ccc(Cl)cc2o1,inconclusive: 9.64%,–
Clc1nc2ccccc2s1,inconclusive: 6.91%,–
Cc1cc(=O)n(-c2ccccc2)n1C,inconclusive: -2.64%,–
COC(C)OC,inconclusive: 4.69%,–
Cc1[nH]cnc1-c1ccc(Cl)cc1,inactive: -0.998% [at 42.5 µM],–
CCCCCC/C=C/C(=O)OC,inconclusive: 10.5%,–
Nc1ccccc1S(=O)(=O)c1ccccc1,–,"inconclusive: 19.3 µM [inhibitor, partial curve, poor fit]"
Clc1cccnc1,inconclusive: -18.7%,–
CC/C=C\CCOC(=O)c1ccccc1,inconclusive: 2.96%,–
O=C(O)COCC(=O)O,inconclusive: -50%,–
CC[C@@]1(c2ccccc2)NC(=O)N(C)C1=O,inactive: 19.4% [at 42.5 µM],–
Cc1scc2c1N(C(=O)CN1CCN(C)CC1)c1ccccc1NC2=O,–,"inconclusive: 29.8 µM [inhibitor, single point]"
Cc1cccc(N)n1,inactive: -9.36%,–
FC(F)(F)/C(=N\OCC1OCCO1)c1ccc(Cl)cc1,inconclusive: 11.9%,–
C=CCOc1c(Br)cc(Br)cc1Br,–,"inconclusive: 0.611 µM [inhibitor, single point]"

SMILES,activation,Potency
CCC(=O)c1ccc(O)cc1,inactive: 28% [at 42.5 µM],–
c1ccc(-c2nn[nH]n2)cc1,–,"inconclusive: 61.1 µM [inhibitor, partial curve, poor fit]"
C=CCOCC(CO)(COCC=C)COCC=C,inactive: -14% [at 42.5 µM],–
O=C(O)CSCC(=O)NC1CCSC1=O (stereo not given),inactive: 5.28% [at 42.5 µM],–
CC(=O)Nc1ccc(C)cc1,inconclusive: 40.9%,–
NC(=O)Nc1ccc(Cl)cc1,inactive: 0.641%,–
CC1CCCC(=O)C1=O (stereo not given),inactive: 4.35%,–
CCCCCc1ccc(Cl)cc1,inconclusive: 18.7%,–
Cc1ccc(N=Nc2c(O)ccc3ccccc23)c(C)c1,inactive: 34.7% [at 42.5 µM],–
CCCOCC(C)OCC(C)O (stereo not given),–,"inconclusive: 17.8 µM [inhibitor, partial curve, poor fit]"
CC(=N\O)/C(C)=N/O,inactive: 3.16%,–
O=[N+]([O-])c1ccc(Cl)cc1Cl,inactive: 8.95%,–
CCc1cccc(CC)c1NC(=O)CN(CC(=O)O)CC(=O)O,–,"inconclusive: 2.98 µM [inhibitor, single point]"
COC(=O)CCC(=O)O,inactive: 12.6%,–
O=C(O)/C=C(\CC(=O)O)C(=O)O,inconclusive: 3.52% [at 42.5 µM],–
C[C@H]1C[C@H]2[C@@H]3CCC4=CC(=O)C=C[C@]4(C)[C@@]3(F)[C@@H](O)C[C@]2(C)[C@@]1(O)C(=O)COP(=O)(O)O,inactive: 13.3%,–
C=C[Si](OCCOC)(OCCOC)OCCOC,–,inactive
Cc1ccc(C)o1,–,"inconclusive: 0.245 µM [inhibitor, full curve, poor fit]"
CC1=C(O)C(=O)CO1,inactive: -27.8%,–
O=C(/N=N/C(=O)OCc1ccccc1)OCc1ccccc1,inactive: -11.8%,–

# Quoted from the listing, 3 compounds:
SMILES,activation,Potency
Cc1ccc(N=Nc2c(O)ccc3ccccc23)c(C)c1,inactive: 34.7% [at 42.5 µM],–
CCCOCC(C)OCC(C)O (stereo not given),–,"inconclusive: 17.8 µM [inhibitor, partial curve, poor fit]"
CC(=N\O)/C(C)=N/O,inactive: 3.16%,–
